# Assay results

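Genome-wide siRNA knockdown in TC32 Ewing sarcoma cells, comparing luciferase light from an NR0B1-promoter reporter with a CMV-promoter reporter 48 hours after transfection. Each siRNA was applied at 20 nM. A z-score of the log NR0B1-over-CMV signal, less the median of siRNAs with the same seed; more negative means a stronger specific loss of the NR0B1 reporter.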

This is part of the screen; most of the strongest results are not listed here. Sequences are the guide (antisense) strand, without overhang.

| Sequence | target gene | seed-corrected z-score |
|---|---|---|
| `UGCGCUUGAAUGAUCCAGC` | CUBN | 0.2846 |
| `ACAUGCUUCAUAUGGAUCC` | UGDH | 0.0993 |
| `UGUGAAGUUGGUGCCGUCG` | SUSD2 | -0.2204 |
| `UGUUCAUCAAGGUUGCAGA` | MAP1S | 0.003366 |
| `UAGCUCAUCAGACAGAUCU` | SF3B2 | -1.853 |
| `AUUGGGAUUGGGUUCAUCC` | UBE2A | -0.6106 |
| `UAAGUCCUUACGGAUGUCA` | ACTG2 | -0.275 |
| `AUCGAAGUACAUACAGUCC` | JAK2 | 0.03904 |
| `UUAGUAAAAAUGGAAUACU` | TTR | 1.11 |
| `AUAUCUCUAAAUAACUUCC` | ZNF419 | -0.1664 |
| `UGAUUCUGAGAUGUCAUCC` | PNCK | -0.8968 |
| `UCGUCUUCCACCUUUGACU` | GBX2 | -1.093 |
| `AUCCAUCCAAGUGUAGAUC` | SAP18 | -0.3973 |
| `AAGGGUAUGCAAGCUAACC` | LRFN5 | -0.4103 |
| `UUCCCUACCAUAUACACUC` | ATP6AP2 | -0.178 |
| `AAAGGUAAACAGAAUGUUG` | FCGR2B | 0.1758 |
| `ACCGUAAAGGGAGUCCUUG` | QPCTL | -0.1489 |
| `UCUUGAUCUAGAGAAUAGG` | OR5W2 | -0.2218 |
| `AAUGUUGUACCCAAACUGC` | SLC2A4 | -1.286 |
| `UAUCUGCUGACAUUGCAUC` | GLOD4 | -0.7076 |
| `UGCCUUCUCAAUCCAGUGG` | TEX30 | -1.097 |
| `UAGUCAAUACUCCUUCUCC` | PLEKHF2 | -0.3051 |
| `UUUCGGGUGAUCGCACACG` | KLK11 | -0.3445 |
| `UUUCUCACCACUCGUAUGG` | RASSF2 | 0.195 |
| `AAACAAACCAGAUGACUGG` | RABL2B | 0.2291 |
| `AUUGAGAUCACUUCCAGGC` | MRPS11 | 0.9052 |
| `UCGGAUUUCAGCAAUGGCA` | DUSP23 | 0.05776 |
| `AAGGUGAUAAUCUGGGUUG` | CSF2 | -0.2366 |
| `AACGGAUUCGUAGAACUGC` | OR3A2 | -0.6106 |
| `ACAGUUCUCCAUUUAGGUC` | BCAN | 0.3559 |
| `UGGAUUAGAAAGCAUAACC` | UBE2U | 0.8994 |
| `AAAGUUUGCACCAUAAGAC` | NDUFS4 | -0.01917 |
| `UAUAGCAUCACGAACUGUC` | PDHB | 0.4508 |
| `UUCUUUGCUGUCGAUAUCC` | SAMD4A | -0.2773 |
| `UCUUUAUUAAGGUGAGUUU` | UBL5 | -2.003 |
| `UUGGAUUCGAUGUUUAGGC` | TMOD4 | 0.2553 |
| `UAAGUUCUUCGCAUAGUCU` | GAS7 | -0.7703 |
| `AGAGUGUCUAGAAUCAUCC` | IRG1 | -0.1084 |
| `UCUGAUAGAAUGGUCUUUC` | CSN3 | 0.4445 |
| `UUUCUGGUUGACGAUGUUC` | KATNB1 | -0.1698 |
| `UACACGUUGCUUCUAAACG` | GPRC5B | 0.1294 |
| `UAGCAGUCCUGGAAGUUUG` | ABCF3 | -0.1928 |
| `UGCUCUGGUAGAGUAAAGC` | EMD | 1.699 |
| `UGAUCUCAUAGAGGCAAGG` | CHCHD2 | 1.227 |
| `UAGACUCUCGGAGUUCUGC` | FASLG | 0.4194 |
| `UCUUUAAUCAUGUUCACCU` | BTF3L4 | 0.2504 |
| `UGGUUAUAAUCUGUCGUGC` | ARHGAP21 | -0.04058 |
| `UAAAGAUUGAAACAGUAUU` | KRTAP3-2 | -0.1253 |
| `UCCUAUACAAGCCUUUCUC` | FKBP5 | 0.08141 |
| `UUUGGGAGAGUUCUGAUCA` | LOC647275 | -0.06843 |
| `UGAUGUCAAACAUAUAGCC` | GAB4 | -0.4938 |
| `ACUUUGCGAAUGUCCAUCC` | PDXK | -0.9688 |
| `UUUCAUAUAUAGGCUGUAG` | FCRL1 | 0.1339 |
| `UGGACCUUGAGAGUUCUGC` | CDH7 | -0.606 |
| `AAAUCGAUCAGACAGAUCC` | RBBP8 | -0.2977 |
| `UUAGAGCCUUCAGCACGGC` | KCNE3 | -0.3934 |
| `GGAGUGAUACGCUUUACUU` | H2AFV | 0.2709 |
| `UUUACACCAAUCAUAUCUG` | CABP1 | -0.03221 |
| `UUGCGGAAAAUAUUGCGGC` | HUNK | -0.6158 |
| `AGAACUACAGCCUUCACCA` | RPS3AP5 | 1.06 |
| `UUUAUGACUGCUGCGGAAG` | DCST1 | -0.3987 |
| `UUCCGUCCAUGAAUGACCG` | MBD5 | -0.6357 |
| `AUCGUCUCCAGAAUUCAUC` | PROZ | 0.3259 |
| `UACUGAAUAGUCUCUGGGC` | SF3A3 | -0.1131 |
| `AAGGGAUACCGAAUGCUGC` | TAS2R5 | -0.8711 |
| `UGUGCUUUCCAGCAAGUCC` | NCALD | 0.273 |
| `UAUGGAUGUGCUUCUCUGC` | C12orf54 | 1.646 |
| `UGCUCUUACAGGAAGCUGG` | LRIG1 | -1.914 |
| `UAUCACUUAAAAACACUGC` | ZNF764 | -0.8062 |
| `UUACGAUACAUCAUCACCU` | TBC1D7 | 0.1206 |
| `UUCAUAGUUGAUACAACCA` | MYL6 | 0.4765 |
| `AGUCCAAUAAGUUCCAUCC` | AMD1 | 0.4717 |
| `GUAGUAGCCAUUUCCAUAG` | KRTAP20-1 | 0.1808 |
| `UUUGCGAAUCAGAAGUUCA` | H3F3A | -0.4603 |

Some entries from above, unchanged:

Sequence,target gene,seed-corrected z-score
UUUCAUAUAUAGGCUGUAG,FCRL1,0.1339
UGUUCAUCAAGGUUGCAGA,MAP1S,0.003366
UCGUCUUCCACCUUUGACU,GBX2,-1.093
UUAGAGCCUUCAGCACGGC,KCNE3,-0.3934
UAAAGAUUGAAACAGUAUU,KRTAP3-2,-0.1253
AUCGAAGUACAUACAGUCC,JAK2,0.03904
AAGGUGAUAAUCUGGGUUG,CSF2,-0.2366
UAUCACUUAAAAACACUGC,ZNF764,-0.8062

From PubChem BioAssay record AID1159506 (NCATS, 2015).